In patent publication US20200239590A1 (WASHINGTON UNIVERSITY, published 2020):
Where a chain is given by its changes, count along the chain named. No constants are given. Whether binding was seen depends on the method and setting. Some entries that bind do so weakly or less than the wild type.

Key:
[1] = molecular target: T1, recombinant TIP1 protein (tax interacting protein 1) (Homo sapiens (Human)) (UniProt O14907); assay: indirect ELISA, recombinant TIP1 coated, 2-fold dilutions of hybridoma supernatant
T1 sequence: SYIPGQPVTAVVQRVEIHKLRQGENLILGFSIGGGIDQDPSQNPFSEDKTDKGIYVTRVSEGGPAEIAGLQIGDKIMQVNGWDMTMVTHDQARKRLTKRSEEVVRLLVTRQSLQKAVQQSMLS

[2] = molecular target: T1, recombinant TIP1 protein (tax interacting protein 1) (Homo sapiens (Human)); assay: indirect ELISA, hybridoma supernatant dilutions on coated recombinant TIP1, anti-mouse HRP, TMB

B1: 2F10 mouse monoclonal anti-TIP1 antibody (antibody, V domains shown)
VH: QVQLQQSGAELARPGASVKLSCKASGYTFTSSGISWVIQKTGQGLEWIGEIYPRSGNTYYNEKFKAKAALTADKSSSTAHMELRSLTSEDSAVYFCARSKTYYSKYGGFFDYWGQGTPLTVSS
VL: DVLMTQTPLSLPVSLGDQASISCRSSQSIVHGNGNTYLEWYLQKPGQSPKLLIHKVSNRFSGVPDRFSGSGSGTDFTLKISRVEAEDLGVYYCFQGSHVPPTFGGGTKLEIK
notes: Mouse monoclonal from hybridoma, tested as supernatant or purified
Q: How did the binding [1] turn out when B1 was run?
A: binds

Q: And the binding [2]?
A: binds

B2: 3D6 mouse monoclonal anti-TIP1 antibody (antibody, V domains shown)
VH: QVQLHQSGAELARPGAAVKLTCKASGYTLTNSGISWVKQRSGQGLEWIGEIYPGSGNIYYNEKFKVKATLTADKSSSTTYMELRSLTSEDSAVYFCARSRTYYSKYGGLFDYWGQGATLTVSS
VL: B1 VL with S14R, I29L, V30L, G32N, H54Y, N58S, E86K, V99I
notes: Mouse monoclonal from hybridoma
Q: For B2, which binding [1] is on record?
A: binds

Q: And the binding [2]?
A: binds

B3: 7H5 mouse monoclonal anti-TIP1 antibody (antibody, V domains shown)
VH: QAQLQQSGAELARPGASVRLSCKASGYILTSSGISWVKQRTGQGLEWIGEIYPRSGNTYYNEKFKGKATLTADKSSSIAYMDLRTLTSEDSAVYFCARSKTFYSKYGGVFDYWGQGTTLTVSS
VL: B1 VL with S28N, G32N, E39D, H54Y, T74A
notes: as for B2
Q: B3 was tested. Which binding [1] did it give?
A: binds

Q: What about the binding [2] of the same binder?
A: binds
